Some of the results follow.
Tests used:
Test in all cases: log2 fold change, soluble protein after heating vs DMSO (PISA); higher = thermal stabilisation; K562 cells, 10 uM, 30 min; active = over 0.2 and 3.5 SD of the protein, either way, in both replicates (recomputed)
saracatinib = compound: CN1CCN(CCOc2cc(OC3CCOCC3)c3c(Nc4c(Cl)ccc5c4OCO5)ncnc3c2)CC1 [saracatinib]
Procedure, shortened: (§1)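 K562 cells (2×10^6 cells/mL) were treated with 10 μM compound for 30 min, and aliquots were heated for 3 min over 48°C-58°C. Pooled aliquots were extracted in PBS with 0.5% NP-40 at 4°C, and the supernatant after 21,000xg for 90 min was measured by TMTpro 16plex LC-MS/MS with channel sums equalised. Reported thermal stability, relative to control samples and from duplicates, is a log2 fold change.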

Amino acid sequences for entries named in this document (tags omitted). A change or cut given only in a name is not applied to a line headed by its entry.
UniProt Q9BXP5: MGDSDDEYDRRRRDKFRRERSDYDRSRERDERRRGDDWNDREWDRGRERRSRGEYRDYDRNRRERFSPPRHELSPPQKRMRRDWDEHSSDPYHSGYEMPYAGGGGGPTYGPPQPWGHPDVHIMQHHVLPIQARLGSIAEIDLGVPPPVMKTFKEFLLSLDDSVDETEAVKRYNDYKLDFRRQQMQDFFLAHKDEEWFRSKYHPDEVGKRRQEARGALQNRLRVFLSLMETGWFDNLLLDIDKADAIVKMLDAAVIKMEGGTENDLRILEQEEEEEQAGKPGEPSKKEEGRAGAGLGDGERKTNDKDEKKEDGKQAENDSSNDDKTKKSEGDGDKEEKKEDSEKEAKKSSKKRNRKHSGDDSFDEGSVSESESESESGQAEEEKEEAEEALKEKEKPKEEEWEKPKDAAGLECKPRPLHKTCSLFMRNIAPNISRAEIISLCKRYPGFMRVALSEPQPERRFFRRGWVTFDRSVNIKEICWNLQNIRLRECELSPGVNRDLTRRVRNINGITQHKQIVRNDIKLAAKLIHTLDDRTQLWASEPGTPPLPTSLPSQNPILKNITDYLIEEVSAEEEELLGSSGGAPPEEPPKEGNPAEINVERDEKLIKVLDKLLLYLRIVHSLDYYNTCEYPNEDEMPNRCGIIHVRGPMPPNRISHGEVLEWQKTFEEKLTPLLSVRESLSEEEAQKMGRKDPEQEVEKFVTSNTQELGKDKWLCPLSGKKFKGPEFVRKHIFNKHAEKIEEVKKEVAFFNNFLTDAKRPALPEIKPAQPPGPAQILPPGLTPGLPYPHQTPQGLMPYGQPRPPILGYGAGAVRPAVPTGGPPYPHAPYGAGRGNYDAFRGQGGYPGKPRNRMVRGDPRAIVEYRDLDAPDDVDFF
UniProt P42224: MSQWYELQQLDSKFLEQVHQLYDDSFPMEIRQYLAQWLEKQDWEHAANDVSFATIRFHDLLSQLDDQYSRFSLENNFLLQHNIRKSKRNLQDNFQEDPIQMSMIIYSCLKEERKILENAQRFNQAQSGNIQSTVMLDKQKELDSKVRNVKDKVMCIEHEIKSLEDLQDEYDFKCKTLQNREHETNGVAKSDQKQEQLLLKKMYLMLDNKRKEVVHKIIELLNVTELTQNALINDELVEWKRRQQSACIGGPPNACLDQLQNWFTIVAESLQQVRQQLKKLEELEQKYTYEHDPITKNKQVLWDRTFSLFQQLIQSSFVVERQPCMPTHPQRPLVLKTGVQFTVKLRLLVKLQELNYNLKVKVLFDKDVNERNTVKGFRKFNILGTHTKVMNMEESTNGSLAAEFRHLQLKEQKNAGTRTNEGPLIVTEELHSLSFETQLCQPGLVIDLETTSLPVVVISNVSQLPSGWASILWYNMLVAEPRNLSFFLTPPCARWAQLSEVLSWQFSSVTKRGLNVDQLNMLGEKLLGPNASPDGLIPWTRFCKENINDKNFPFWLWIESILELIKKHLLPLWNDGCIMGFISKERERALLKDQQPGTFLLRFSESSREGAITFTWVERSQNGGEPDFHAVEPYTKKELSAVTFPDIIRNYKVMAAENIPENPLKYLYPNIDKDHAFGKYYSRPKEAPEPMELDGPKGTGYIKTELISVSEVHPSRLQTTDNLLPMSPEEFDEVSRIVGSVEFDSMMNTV
UniProt P43307: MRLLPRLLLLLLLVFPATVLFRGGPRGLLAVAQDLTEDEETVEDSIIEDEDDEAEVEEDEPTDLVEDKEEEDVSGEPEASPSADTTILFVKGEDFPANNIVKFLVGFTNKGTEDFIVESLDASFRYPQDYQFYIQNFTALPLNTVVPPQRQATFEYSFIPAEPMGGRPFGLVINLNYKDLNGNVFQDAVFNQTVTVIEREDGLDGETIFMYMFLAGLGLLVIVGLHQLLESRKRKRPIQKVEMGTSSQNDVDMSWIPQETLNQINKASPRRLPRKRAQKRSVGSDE
UniProt Q9C004: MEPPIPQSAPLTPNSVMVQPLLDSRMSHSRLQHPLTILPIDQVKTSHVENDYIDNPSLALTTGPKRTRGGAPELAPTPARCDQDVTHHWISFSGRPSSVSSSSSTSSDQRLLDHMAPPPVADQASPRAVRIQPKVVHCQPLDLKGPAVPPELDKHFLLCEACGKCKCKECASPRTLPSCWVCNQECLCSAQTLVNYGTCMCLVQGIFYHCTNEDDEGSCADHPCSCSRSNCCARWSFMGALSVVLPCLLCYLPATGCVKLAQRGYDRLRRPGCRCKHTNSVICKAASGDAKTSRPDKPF
UniProt Q9H2V7: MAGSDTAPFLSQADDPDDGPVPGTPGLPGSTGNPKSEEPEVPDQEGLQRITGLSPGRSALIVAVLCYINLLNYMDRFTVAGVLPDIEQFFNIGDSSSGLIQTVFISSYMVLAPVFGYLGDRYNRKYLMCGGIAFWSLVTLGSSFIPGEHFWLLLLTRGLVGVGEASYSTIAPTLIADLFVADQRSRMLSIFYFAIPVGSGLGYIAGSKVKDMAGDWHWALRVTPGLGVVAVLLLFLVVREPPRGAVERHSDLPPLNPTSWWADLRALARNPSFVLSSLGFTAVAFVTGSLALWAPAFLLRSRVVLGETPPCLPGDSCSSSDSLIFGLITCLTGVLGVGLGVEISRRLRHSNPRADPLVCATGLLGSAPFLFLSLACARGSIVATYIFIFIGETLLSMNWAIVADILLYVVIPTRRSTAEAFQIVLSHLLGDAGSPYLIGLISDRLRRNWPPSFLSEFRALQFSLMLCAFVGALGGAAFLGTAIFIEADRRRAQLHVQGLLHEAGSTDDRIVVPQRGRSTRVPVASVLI
UniProt Q9NYA1, whole entry, looked up: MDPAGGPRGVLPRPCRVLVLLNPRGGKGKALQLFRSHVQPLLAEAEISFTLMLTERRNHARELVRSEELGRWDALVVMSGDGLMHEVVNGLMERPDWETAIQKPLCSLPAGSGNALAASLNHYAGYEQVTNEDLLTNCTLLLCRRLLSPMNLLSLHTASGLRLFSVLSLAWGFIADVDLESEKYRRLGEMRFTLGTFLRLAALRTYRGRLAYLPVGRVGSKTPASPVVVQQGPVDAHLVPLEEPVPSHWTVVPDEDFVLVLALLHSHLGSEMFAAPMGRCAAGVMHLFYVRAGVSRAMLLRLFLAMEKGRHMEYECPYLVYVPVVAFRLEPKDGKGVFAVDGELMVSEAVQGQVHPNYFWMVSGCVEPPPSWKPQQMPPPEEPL
UniProt P50502: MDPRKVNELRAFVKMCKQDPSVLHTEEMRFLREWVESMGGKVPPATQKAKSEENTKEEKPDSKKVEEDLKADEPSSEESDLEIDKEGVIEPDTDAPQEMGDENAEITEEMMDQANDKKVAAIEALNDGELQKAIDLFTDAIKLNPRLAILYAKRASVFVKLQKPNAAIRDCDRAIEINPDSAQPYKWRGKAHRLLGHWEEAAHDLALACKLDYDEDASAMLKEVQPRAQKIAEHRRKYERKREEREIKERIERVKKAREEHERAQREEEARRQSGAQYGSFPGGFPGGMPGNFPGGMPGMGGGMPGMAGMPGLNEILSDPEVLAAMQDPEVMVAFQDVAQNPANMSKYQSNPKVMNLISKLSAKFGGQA
UniProt P10124: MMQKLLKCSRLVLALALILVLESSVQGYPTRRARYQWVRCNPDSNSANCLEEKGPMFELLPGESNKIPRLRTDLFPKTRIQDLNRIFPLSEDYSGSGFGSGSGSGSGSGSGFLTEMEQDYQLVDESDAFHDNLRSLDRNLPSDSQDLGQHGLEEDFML
UniProt Q14534: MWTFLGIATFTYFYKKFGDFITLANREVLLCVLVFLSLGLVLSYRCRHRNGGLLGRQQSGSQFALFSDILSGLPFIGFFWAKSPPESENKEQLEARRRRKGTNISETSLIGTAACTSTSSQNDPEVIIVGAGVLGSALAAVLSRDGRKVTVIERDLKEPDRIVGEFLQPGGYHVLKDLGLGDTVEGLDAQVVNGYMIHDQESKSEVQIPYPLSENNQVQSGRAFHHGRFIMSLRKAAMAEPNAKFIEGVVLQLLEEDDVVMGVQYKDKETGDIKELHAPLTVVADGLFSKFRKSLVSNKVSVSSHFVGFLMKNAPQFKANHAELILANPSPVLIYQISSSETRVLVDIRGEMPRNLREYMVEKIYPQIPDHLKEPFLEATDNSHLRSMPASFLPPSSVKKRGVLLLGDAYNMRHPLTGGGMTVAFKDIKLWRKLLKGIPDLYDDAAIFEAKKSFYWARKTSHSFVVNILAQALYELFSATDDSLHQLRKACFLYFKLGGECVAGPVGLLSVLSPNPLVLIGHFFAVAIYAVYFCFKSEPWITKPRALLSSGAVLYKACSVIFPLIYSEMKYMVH
UniProt Q8NBT2: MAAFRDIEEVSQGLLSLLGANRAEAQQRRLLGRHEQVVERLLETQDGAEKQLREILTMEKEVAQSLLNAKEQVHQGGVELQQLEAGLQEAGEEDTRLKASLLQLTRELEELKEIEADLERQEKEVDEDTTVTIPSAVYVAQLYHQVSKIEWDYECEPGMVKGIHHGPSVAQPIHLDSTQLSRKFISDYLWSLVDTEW
UniProt Q8WW59: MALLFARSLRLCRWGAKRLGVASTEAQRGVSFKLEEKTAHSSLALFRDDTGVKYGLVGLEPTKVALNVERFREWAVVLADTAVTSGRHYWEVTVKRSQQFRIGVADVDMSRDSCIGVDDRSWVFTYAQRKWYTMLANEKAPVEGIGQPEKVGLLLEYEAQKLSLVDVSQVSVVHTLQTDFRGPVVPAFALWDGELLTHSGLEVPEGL
UniProt Q9BVQ7: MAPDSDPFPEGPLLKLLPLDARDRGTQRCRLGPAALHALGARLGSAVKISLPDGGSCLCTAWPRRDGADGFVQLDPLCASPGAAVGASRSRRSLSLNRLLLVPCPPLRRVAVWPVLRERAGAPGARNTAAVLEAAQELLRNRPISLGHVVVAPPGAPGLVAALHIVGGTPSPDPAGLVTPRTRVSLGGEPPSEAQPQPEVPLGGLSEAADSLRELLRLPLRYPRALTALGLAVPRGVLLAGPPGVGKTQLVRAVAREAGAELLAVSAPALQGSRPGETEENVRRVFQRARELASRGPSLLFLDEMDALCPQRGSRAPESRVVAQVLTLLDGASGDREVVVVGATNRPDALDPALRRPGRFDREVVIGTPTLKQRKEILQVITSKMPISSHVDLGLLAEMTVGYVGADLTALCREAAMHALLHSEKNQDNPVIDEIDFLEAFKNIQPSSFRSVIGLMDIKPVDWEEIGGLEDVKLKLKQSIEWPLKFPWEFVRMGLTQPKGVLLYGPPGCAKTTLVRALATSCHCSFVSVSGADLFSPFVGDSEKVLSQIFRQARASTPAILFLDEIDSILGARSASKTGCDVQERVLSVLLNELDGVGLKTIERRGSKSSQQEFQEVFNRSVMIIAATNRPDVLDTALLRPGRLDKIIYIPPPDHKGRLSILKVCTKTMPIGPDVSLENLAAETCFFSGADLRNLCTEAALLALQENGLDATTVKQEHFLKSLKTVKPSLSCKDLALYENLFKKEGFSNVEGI
UniProt O95793: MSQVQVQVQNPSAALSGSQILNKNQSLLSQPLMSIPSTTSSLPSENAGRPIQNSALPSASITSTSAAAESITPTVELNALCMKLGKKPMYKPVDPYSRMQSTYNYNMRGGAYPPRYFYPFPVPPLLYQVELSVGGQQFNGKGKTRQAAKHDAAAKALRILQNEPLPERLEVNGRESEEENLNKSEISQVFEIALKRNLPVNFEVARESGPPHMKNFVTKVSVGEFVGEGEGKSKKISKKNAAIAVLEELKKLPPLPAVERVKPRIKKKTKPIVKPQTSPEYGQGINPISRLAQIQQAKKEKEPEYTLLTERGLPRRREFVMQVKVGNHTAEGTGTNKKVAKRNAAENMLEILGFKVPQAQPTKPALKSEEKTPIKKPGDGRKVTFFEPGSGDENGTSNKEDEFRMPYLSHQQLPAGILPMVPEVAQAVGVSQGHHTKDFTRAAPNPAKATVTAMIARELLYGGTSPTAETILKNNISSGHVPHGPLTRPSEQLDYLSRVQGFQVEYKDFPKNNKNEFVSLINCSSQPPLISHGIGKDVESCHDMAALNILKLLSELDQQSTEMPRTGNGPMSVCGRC

sotrastaurin = compound: CN1CCN(c2nc(C3=C(c4c[nH]c5ccccc45)C(=O)NC3=O)c3ccccc3n2)CC1 [sotrastaurin]
Procedure, shortened: as §1

alvocidib = compound: CN1CC[C@H](c2c(O)cc(O)c3c(=O)cc(-c4ccccc4Cl)oc23)[C@H](O)C1 [alvocidib]
Procedure, shortened: as §1

Tubastatin A = compound: CN1CCc2c(c3ccccc3n2Cc2ccc(C(=O)NO)cc2)C1 [Tubastatin A]
Procedure, shortened: as §1

[1] = compound: CNC(=O)C1=CC=CC=C1NC2=NC(=NC=C2Cl)NC3=C(C=C(C=C3)N4CCOCC4)OC
Procedure, shortened: as §1

defactinib = compound: CNC(=O)c1ccc(Nc2ncc(C(F)(F)F)c(NCc3nccnc3N(C)S(C)(=O)=O)n2)cc1 [defactinib]
Procedure, shortened: as §1

rucaparib = compound: CNCc1ccc(-c2[nH]c3cc(F)cc4c3c2CCNC4=O)cc1 [rucaparib]
Procedure, shortened: as §1

[2] = compound: CNc1nc(-c2ccc3c(N)n[nH]c3c2)cc(N2C[C@@H](C(=O)NC3CCCCC3)CC[C@H]2C)n1
Procedure, shortened: as §1

encorafenib = compound: COC(=O)N[C@@H](C)CNc1nccc(-c2cn(C(C)C)nc2-c2cc(Cl)cc(NS(C)(=O)=O)c2F)n1 [encorafenib]
Procedure, shortened: as §1

[3] = compound: COC(=O)[C@H](CCSC)NC(=O)C1=C(C=C(C=C1)NC[C@H](CS)N)C2=CC=CC=C2
Procedure, shortened: as §1

[4] = compound: COC1=CC=C(C=C1)CN2C=CC3=C2C=C(C=C3)C(=O)NO
Procedure, shortened: as §1

filanesib = compound: CON(C)C(=O)N1N=C(c2cc(F)ccc2F)S[C@@]1(CCCN)c1ccccc1 [filanesib]
Procedure, shortened: as §1

zotarolimus = compound: CO[C@H]1C[C@@H]2CC[C@@H](C)[C@@](O)(O2)C(=O)C(=O)N2CCCC[C@H]2C(=O)O[C@H]([C@H](C)C[C@@H]2CC[C@H](n3cnnn3)[C@H](OC)C2)CC(=O)[C@H](C)/C=C(\C)[C@@H](O)[C@@H](OC)C(=O)[C@H](C)C[C@H](C)/C=C/C=C/C=C/1C [zotarolimus]
Procedure, shortened: as §1

idasanutlin = compound: COc1cc(C(=O)O)ccc1NC(=O)[C@@H]1N[C@@H](CC(C)(C)C)[C@](C#N)(c2ccc(Cl)cc2F)[C@H]1c1cccc(Cl)c1F [idasanutlin]
Procedure, shortened: as §1

alisertib = compound: COc1cc(Nc2ncc3c(n2)-c2ccc(Cl)cc2C(c2c(F)cccc2OC)=NC3)ccc1C(=O)O [alisertib]
Procedure, shortened: as §1

[5] = compound: COc1cc2nc(-c3cc(F)ccc3O)nc(N[C@@H]3CNC[C@H]3C(C)(C)O)c2cc1OC
Procedure, shortened: as §1

gefitinib = compound: COc1cc2ncnc(Nc3ccc(F)c(Cl)c3)c2cc1OCCCN1CCOCC1 [gefitinib]
Procedure, shortened: as §1

[6] = compound: COc1cccc2cc(-c3nc([C@H]4CC[C@H](C(=O)O)CC4)n4ncnc(N)c34)[nH]c12
Procedure, shortened: as §1

lapatinib = compound: CS(=O)(=O)CCNCc1ccc(-c2ccc3ncnc(Nc4ccc(OCc5cccc(F)c5)c(Cl)c4)c3c2)o1 [lapatinib]
Procedure, shortened: as §1

pictilisib = compound: CS(=O)(=O)N1CCN(Cc2cc3nc(-c4cccc5[nH]ncc45)nc(N4CCOCC4)c3s2)CC1 [pictilisib]
Procedure, shortened: as §1

Measured: log2 fold change

SRRT (UniProt Q9BXP5)
inactive: saracatinib -0.066 | sotrastaurin -0.197 | alvocidib -0.242 | Tubastatin A 0.143 | [1] -0.047 | defactinib -0.3 | rucaparib -0.005 | [2] 0.147 | encorafenib 0.136 | [3] -0.081 | [4] 0.198 | filanesib -0.174 | zotarolimus 0 | idasanutlin -0.103 | alisertib 0.065 | [5] 0.02 | gefitinib 0.093 | [6] 0 | lapatinib 0 | pictilisib -0.013

STAT1 (UniProt P42224)
inactive: saracatinib -0.059 | sotrastaurin -0.307 | alvocidib 0.166 | Tubastatin A 0.149 | [1] -0.022 | defactinib 0.121 | rucaparib 0.372 | [2] 0.171 | encorafenib 0.13 | [3] -0.027 | [4] -0.155 | filanesib 0.376 | zotarolimus 0.076 | idasanutlin -0.033 | alisertib 0.03 | [5] -0.13 | gefitinib -0.014 | [6] -0.202 | lapatinib 0.172 | pictilisib -0.035

SRGAP2 (UniProt O75044)
inactive: saracatinib -0.019 | sotrastaurin -0.055 | alvocidib -0.086 | Tubastatin A 0.052 | [1] 0.007 | defactinib -0.075 | rucaparib 0.026 | [2] 0.03 | encorafenib 0.004 | [3] 0.042 | [4] -0.017 | filanesib 0.034 | zotarolimus 0.009 | idasanutlin 0 | alisertib -0.048 | [5] 0.051 | gefitinib 0.026 | [6] 0.011 | lapatinib -0.023 | pictilisib 0.064

SSR1 (UniProt P43307)
inactive: saracatinib 0.008 | sotrastaurin 0.028 | alvocidib 0.017 | Tubastatin A -0.019 | [1] 0.021 | defactinib 0.008 | rucaparib 0.012 | [2] -0.024 | encorafenib -0.02 | [3] 0.02 | [4] -0.009 | filanesib -0.034 | zotarolimus -0.034 | idasanutlin -0.005 | alisertib -0.033 | [5] 0.021 | gefitinib 0.021 | [6] 0.078 | lapatinib -0.015 | pictilisib 0.003

SPRY4 (UniProt Q9C004)
inactive: saracatinib 0.087 | sotrastaurin -0.04 | alvocidib 0.006 | Tubastatin A 0.045 | [1] -0.004 | defactinib -0.005 | rucaparib -0.038 | [2] -0.071 | encorafenib 0.023 | [3] 0.019 | [4] -0.012 | filanesib -0.103 | zotarolimus -0.033 | idasanutlin -0.042 | alisertib 0.005 | [5] -0.017 | gefitinib -0.003 | [6] -0.015 | lapatinib -0.073 | pictilisib 0.026

SPNS1 (UniProt Q9H2V7)
inactive: saracatinib 0.088 | sotrastaurin -0.05 | alvocidib 0.005 | Tubastatin A -0.086 | [1] 0.008 | defactinib -0.015 | rucaparib 0.019 | [2] -0.101 | encorafenib -0.023 | [3] -0.011 | [4] 0.02 | filanesib -0.057 | zotarolimus -0.039 | idasanutlin -0.081 | alisertib -0.058 | [5] 0.104 | gefitinib -0.002 | [6] 0.045 | lapatinib 0.032 | pictilisib 0.02

SPTA1 (UniProt P02549)
inactive: saracatinib -0.101 | sotrastaurin -0.192 | alvocidib 0.083 | Tubastatin A 0.074 | [1] 0.028 | defactinib 0.027 | rucaparib 0.299 | [2] 0.1 | encorafenib 0.2 | [3] -0.029 | [4] 0.015 | filanesib 0.218 | zotarolimus 0.111 | idasanutlin 0.16 | alisertib -0.099 | [5] -0.083 | gefitinib 0.007 | [6] -0.201 | lapatinib 0.097 | pictilisib -0.04

SPHK1 isoform 2 (UniProt Q9NYA1)
inactive: saracatinib -0.018 | sotrastaurin 0.199 | alvocidib -0.07 | Tubastatin A -0.023 | [1] 0.01 | defactinib -0.153 | rucaparib 0.013 | [2] -0.036 | encorafenib -0.026 | [3] -0.089 | [4] -0.11 | filanesib -0.046 | zotarolimus -0.002 | idasanutlin -0.146 | alisertib -0.039 | [5] 0.117 | gefitinib -0.021 | [6] 0.038 | lapatinib 0.104 | pictilisib 0.05

ST13 (UniProt P50502)
inactive: saracatinib -0.014 | sotrastaurin -0.021 | alvocidib -0.057 | Tubastatin A -0.015 | [1] 0.012 | defactinib -0.043 | rucaparib -0.036 | [2] 0.008 | encorafenib -0.001 | [3] 0.005 | [4] 0.008 | filanesib -0.076 | zotarolimus 0.017 | idasanutlin -0.052 | alisertib -0.038 | [5] 0.007 | gefitinib 0 | [6] -0.007 | lapatinib -0.037 | pictilisib 0.006

SRGN (UniProt P10124)
inactive: saracatinib 0.271 | sotrastaurin 0.248 | alvocidib -0.019 | Tubastatin A 0.037 | [1] 0.139 | defactinib -0.118 | rucaparib 0.058 | [2] 0.044 | encorafenib 0.032 | [3] -0.136 | [4] 0.04 | filanesib 0.267 | zotarolimus 0.099 | idasanutlin 0.069 | alisertib -0.027 | [5] 0.028 | gefitinib 0.208 | [6] 0.014 | lapatinib 0.121 | pictilisib -0.029

SPCS1, A0A5F9YFS9
inactive: saracatinib -0.04 | sotrastaurin -0.042 | alvocidib -0.256 | Tubastatin A 0.105 | [1] -0.021 | defactinib -0.079 | rucaparib -0.035 | [2] 0.041 | encorafenib -0.074 | [3] -0.055 | [4] 0.078 | filanesib 0.024 | zotarolimus 0.075 | idasanutlin -0.17 | alisertib -0.023 | [5] 0.059 | gefitinib 0.009 | [6] 0.039 | lapatinib 0.038 | pictilisib 0.046

SQLE (UniProt Q14534)
inactive: saracatinib 0.071 | sotrastaurin 0.015 | alvocidib -0.056 | Tubastatin A 0.102 | [1] 0 | defactinib -0.039 | rucaparib 0.017 | [2] 0.075 | encorafenib -0.048 | [3] -0.018 | [4] 0.025 | filanesib 0.032 | zotarolimus 0.141 | idasanutlin -0.026 | alisertib -0.028 | [5] -0.021 | gefitinib -0.024 | [6] -0.031 | lapatinib -0.087 | pictilisib 0.051

Quoted from the listing (four entries):
SPNS1 (UniProt Q9H2V7)
inactive: saracatinib 0.088 | sotrastaurin -0.05 | alvocidib 0.005 | Tubastatin A -0.086 | [1] 0.008 | defactinib -0.015 | rucaparib 0.019 | [2] -0.101 | encorafenib -0.023 | [3] -0.011 | [4] 0.02 | filanesib -0.057 | zotarolimus -0.039 | idasanutlin -0.081 | alisertib -0.058 | [5] 0.104 | gefitinib -0.002 | [6] 0.045 | lapatinib 0.032 | pictilisib 0.02

SPTA1 (UniProt P02549)
inactive: saracatinib -0.101 | sotrastaurin -0.192 | alvocidib 0.083 | Tubastatin A 0.074 | [1] 0.028 | defactinib 0.027 | rucaparib 0.299 | [2] 0.1 | encorafenib 0.2 | [3] -0.029 | [4] 0.015 | filanesib 0.218 | zotarolimus 0.111 | idasanutlin 0.16 | alisertib -0.099 | [5] -0.083 | gefitinib 0.007 | [6] -0.201 | lapatinib 0.097 | pictilisib -0.04

SPHK1 isoform 2 (UniProt Q9NYA1)
inactive: saracatinib -0.018 | sotrastaurin 0.199 | alvocidib -0.07 | Tubastatin A -0.023 | [1] 0.01 | defactinib -0.153 | rucaparib 0.013 | [2] -0.036 | encorafenib -0.026 | [3] -0.089 | [4] -0.11 | filanesib -0.046 | zotarolimus -0.002 | idasanutlin -0.146 | alisertib -0.039 | [5] 0.117 | gefitinib -0.021 | [6] 0.038 | lapatinib 0.104 | pictilisib 0.05

ST13 (UniProt P50502)
inactive: saracatinib -0.014 | sotrastaurin -0.021 | alvocidib -0.057 | Tubastatin A -0.015 | [1] 0.012 | defactinib -0.043 | rucaparib -0.036 | [2] 0.008 | encorafenib -0.001 | [3] 0.005 | [4] 0.008 | filanesib -0.076 | zotarolimus 0.017 | idasanutlin -0.052 | alisertib -0.038 | [5] 0.007 | gefitinib 0 | [6] -0.007 | lapatinib -0.037 | pictilisib 0.006

(cont.)

SPC24 (UniProt Q8NBT2)
inactive: saracatinib 0.063 | sotrastaurin -0.109 | alvocidib -0.06 | Tubastatin A 0.028 | [1] 0.004 | defactinib -0.096 | rucaparib -0.045 | [2] -0.01 | encorafenib 0.026 | [3] -0.058 | [4] 0.081 | filanesib -0.034 | zotarolimus 0.062 | idasanutlin -0.026 | alisertib -0.047 | [5] 0.005 | gefitinib 0.022 | [6] -0.023 | lapatinib 0.008 | pictilisib -0.008

SPRYD4 (UniProt Q8WW59)
inactive: saracatinib 0.004 | sotrastaurin 0.034 | alvocidib -0.014 | Tubastatin A -0.022 | [1] 0.042 | defactinib -0.065 | rucaparib -0.066 | [2] -0.007 | encorafenib -0.045 | [3] -0.003 | [4] -0.077 | filanesib -0.034 | zotarolimus -0.018 | idasanutlin -0.022 | alisertib 0.096 | [5] 0.009 | gefitinib 0 | [6] 0.04 | lapatinib -0.048 | pictilisib 0.06

SPATA5L1 (UniProt Q9BVQ7)
inactive: saracatinib -0.016 | sotrastaurin 0.017 | alvocidib 0.037 | Tubastatin A -0.036 | [1] -0.019 | defactinib 0.039 | rucaparib 0.014 | [2] -0.036 | encorafenib 0.001 | [3] 0.014 | [4] 0.016 | filanesib 0.043 | zotarolimus -0.034 | idasanutlin 0.039 | alisertib -0.086 | [5] 0.067 | gefitinib 0.014 | [6] 0.008 | lapatinib -0.027 | pictilisib 0.001

STAU1 (UniProt O95793)
inactive: saracatinib -0.133 | sotrastaurin -0.019 | alvocidib 0.358 | Tubastatin A 0.17 | [1] 0.037 | defactinib 0.37 | rucaparib 0.338 | [2] 0.142 | encorafenib 0.137 | [3] 0.034 | [4] -0.075 | filanesib 0.441 | zotarolimus 0.029 | idasanutlin 0.227 | alisertib -0.114 | [5] 0.02 | gefitinib -0.055 | [6] -0.264 | lapatinib 0.166 | pictilisib -0.082

From the supplement of paper PMC10849652
